Assay results from article doi:10.1101/137844.
No constants are given. Whether binding was seen depends on the method and setting. Some results given as binding are weak or reduced against the parent protein; the word gives no strength.

T1: SRO1 WWE--- (amino acids 1-262) (Arabidopsis) (UniProt O82289)
T1 sequence: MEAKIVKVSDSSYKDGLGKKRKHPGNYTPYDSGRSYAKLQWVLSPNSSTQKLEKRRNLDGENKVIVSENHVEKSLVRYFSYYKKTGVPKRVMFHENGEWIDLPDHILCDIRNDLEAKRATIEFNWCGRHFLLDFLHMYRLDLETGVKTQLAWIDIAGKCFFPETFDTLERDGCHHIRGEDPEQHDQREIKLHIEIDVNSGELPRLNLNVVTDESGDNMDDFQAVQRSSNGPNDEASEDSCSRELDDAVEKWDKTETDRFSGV

T2: RCD1 WWE--- (amino acids 1-265) (Arabidopsis) (UniProt Q8RY59)
T2 sequence: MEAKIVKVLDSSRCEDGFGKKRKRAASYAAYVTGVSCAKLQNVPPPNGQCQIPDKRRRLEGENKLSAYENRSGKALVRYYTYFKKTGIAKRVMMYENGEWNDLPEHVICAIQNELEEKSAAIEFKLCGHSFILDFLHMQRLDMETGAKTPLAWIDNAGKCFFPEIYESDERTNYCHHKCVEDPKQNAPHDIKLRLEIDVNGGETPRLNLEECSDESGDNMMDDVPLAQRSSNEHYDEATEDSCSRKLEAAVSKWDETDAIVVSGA


Columns and labels:
[1] = target: T1, SRO1 WWE--- (amino acids 1-262) (Arabidopsis); assay: two-hybrid
[2] = target: T2, RCD1 WWE--- (amino acids 1-265) (Arabidopsis); assay: two-hybrid

Row | binding [1] | binding [2] | Binder
1 | binds | binds | SRO1 WWE--- (amino acids 1-262) (domain or fragment, UniProt O82289 1-262) MEAKIVKVSDSSYKDGLGKKRKHPGNYTPYDSGRSYAKLQWVLSPNSSTQKLEKRRNLDGENKVIVSENHVEKSLVRYFSYYKKTGVPKRVMFHENGEWIDLPDHILCDIRNDLEAKRATIEFNWCGRHFLLDFLHMYRLDLETGVKTQLAWIDIAGKCFFPETFDTLERDGCHHIRGEDPEQHDQREIKLHIEIDVNSGELPRLNLNVVTDESGDNMDDFQAVQRSSNGPNDEASEDSCSRELDDAVEKWDKTETDRFSGV
2 | binds | – | RCD1 WWE--- (amino acids 1-265) (domain or fragment, UniProt Q8RY59 1-265) MEAKIVKVLDSSRCEDGFGKKRKRAASYAAYVTGVSCAKLQNVPPPNGQCQIPDKRRRLEGENKLSAYENRSGKALVRYYTYFKKTGIAKRVMMYENGEWNDLPEHVICAIQNELEEKSAAIEFKLCGHSFILDFLHMQRLDMETGAKTPLAWIDNAGKCFFPEIYESDERTNYCHHKCVEDPKQNAPHDIKLRLEIDVNGGETPRLNLEECSDESGDNMMDDVPLAQRSSNEHYDEATEDSCSRKLEAAVSKWDETDAIVVSGA
